Data from the supplement of paper PMC10849652.
The other results are listed elsewhere or left out.

Amino acid sequences for entries named in this document (tags omitted). A change or cut given only in a name is not applied to a line headed by its entry.
UniProt P04792, whole entry, looked up: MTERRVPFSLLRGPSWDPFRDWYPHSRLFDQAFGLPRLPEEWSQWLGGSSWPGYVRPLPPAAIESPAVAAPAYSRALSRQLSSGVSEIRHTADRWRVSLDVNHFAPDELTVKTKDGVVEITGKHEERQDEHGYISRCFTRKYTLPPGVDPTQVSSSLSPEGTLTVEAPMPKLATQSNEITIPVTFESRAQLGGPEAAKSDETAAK
UniProt P23327: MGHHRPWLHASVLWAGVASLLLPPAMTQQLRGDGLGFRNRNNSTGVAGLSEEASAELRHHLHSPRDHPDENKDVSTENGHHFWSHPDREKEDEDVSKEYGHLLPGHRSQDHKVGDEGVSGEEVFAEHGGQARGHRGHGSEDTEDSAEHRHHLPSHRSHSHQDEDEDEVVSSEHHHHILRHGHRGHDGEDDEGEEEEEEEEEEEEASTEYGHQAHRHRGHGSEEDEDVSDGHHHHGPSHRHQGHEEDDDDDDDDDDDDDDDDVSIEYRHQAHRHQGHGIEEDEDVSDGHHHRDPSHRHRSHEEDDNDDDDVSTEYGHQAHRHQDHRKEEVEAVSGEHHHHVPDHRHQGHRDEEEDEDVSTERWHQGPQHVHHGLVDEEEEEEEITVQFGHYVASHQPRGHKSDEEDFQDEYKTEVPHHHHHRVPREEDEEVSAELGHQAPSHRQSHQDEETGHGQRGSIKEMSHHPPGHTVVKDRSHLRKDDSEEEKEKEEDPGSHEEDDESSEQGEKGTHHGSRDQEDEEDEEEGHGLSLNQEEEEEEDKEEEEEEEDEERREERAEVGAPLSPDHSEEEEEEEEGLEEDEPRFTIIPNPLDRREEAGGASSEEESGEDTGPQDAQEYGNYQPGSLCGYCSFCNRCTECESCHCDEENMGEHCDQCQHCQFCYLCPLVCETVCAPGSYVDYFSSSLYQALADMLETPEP
UniProt Q9UMF0: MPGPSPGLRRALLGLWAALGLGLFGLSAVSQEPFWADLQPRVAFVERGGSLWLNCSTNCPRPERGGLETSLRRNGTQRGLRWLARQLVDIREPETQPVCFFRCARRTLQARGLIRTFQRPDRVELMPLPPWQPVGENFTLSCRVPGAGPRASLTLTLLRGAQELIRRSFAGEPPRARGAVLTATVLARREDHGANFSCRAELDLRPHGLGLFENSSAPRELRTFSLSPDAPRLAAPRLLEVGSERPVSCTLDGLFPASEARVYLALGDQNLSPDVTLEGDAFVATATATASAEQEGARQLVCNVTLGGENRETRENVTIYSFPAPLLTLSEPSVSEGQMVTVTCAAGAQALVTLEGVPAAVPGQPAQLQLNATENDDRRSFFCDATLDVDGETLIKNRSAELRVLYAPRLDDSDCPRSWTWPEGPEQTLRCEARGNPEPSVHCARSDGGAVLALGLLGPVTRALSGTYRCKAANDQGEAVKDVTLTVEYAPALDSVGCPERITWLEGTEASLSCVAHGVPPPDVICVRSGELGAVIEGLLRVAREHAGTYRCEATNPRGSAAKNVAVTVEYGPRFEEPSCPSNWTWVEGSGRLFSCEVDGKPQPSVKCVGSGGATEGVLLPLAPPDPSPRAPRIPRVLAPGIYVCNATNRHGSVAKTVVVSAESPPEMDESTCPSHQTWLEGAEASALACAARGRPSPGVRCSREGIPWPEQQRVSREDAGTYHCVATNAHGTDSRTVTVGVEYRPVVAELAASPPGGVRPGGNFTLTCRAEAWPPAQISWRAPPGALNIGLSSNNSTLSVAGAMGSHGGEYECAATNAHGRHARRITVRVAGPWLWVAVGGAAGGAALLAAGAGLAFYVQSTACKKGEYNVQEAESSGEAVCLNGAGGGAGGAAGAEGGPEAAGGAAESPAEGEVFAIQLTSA
UniProt O60725, whole entry, looked up: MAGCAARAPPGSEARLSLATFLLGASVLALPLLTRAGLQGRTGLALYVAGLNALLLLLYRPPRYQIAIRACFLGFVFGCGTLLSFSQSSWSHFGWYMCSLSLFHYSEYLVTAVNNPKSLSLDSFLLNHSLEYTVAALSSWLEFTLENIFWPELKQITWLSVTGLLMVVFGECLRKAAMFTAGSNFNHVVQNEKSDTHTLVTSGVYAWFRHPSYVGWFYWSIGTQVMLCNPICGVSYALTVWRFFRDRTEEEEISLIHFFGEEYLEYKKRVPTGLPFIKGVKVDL
UniProt P13747, whole entry, looked up: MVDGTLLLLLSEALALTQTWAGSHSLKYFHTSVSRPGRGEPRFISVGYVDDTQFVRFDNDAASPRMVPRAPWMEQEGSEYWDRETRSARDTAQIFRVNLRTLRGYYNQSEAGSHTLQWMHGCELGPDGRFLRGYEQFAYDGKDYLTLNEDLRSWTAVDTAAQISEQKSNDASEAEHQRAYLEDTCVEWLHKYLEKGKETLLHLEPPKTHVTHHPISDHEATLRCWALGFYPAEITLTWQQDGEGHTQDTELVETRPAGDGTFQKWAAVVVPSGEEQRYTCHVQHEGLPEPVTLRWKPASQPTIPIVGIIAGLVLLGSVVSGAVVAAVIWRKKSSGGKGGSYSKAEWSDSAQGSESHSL
UniProt Q8TB92: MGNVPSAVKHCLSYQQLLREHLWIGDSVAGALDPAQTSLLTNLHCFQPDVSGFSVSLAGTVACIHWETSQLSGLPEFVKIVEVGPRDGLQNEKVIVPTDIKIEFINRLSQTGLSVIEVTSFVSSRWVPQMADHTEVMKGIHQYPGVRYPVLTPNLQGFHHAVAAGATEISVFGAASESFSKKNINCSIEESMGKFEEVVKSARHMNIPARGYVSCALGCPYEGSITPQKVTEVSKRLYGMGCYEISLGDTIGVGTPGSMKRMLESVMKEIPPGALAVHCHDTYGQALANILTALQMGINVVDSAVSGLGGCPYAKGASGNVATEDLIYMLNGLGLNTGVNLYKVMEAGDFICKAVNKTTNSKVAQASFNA
UniProt P00738: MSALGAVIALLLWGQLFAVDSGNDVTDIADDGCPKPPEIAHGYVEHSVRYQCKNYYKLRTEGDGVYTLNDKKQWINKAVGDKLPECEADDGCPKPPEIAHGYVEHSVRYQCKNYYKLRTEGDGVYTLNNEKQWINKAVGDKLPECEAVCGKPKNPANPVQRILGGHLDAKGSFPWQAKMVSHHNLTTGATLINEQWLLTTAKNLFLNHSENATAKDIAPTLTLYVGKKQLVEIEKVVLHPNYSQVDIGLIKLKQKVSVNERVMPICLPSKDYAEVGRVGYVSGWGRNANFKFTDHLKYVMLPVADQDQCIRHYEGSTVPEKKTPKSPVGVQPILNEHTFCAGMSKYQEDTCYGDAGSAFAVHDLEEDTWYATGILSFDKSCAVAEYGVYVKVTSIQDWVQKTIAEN
UniProt Q96FZ2: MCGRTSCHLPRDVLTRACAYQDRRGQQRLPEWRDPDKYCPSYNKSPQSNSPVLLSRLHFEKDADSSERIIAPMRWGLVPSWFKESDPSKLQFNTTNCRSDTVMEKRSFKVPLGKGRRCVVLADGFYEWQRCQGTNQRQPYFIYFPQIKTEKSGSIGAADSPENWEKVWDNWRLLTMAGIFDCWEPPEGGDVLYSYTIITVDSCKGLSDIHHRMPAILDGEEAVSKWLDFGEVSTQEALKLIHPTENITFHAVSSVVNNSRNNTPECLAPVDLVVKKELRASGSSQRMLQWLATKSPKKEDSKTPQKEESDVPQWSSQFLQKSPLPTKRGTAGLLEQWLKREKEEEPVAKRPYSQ
UniProt Q05084: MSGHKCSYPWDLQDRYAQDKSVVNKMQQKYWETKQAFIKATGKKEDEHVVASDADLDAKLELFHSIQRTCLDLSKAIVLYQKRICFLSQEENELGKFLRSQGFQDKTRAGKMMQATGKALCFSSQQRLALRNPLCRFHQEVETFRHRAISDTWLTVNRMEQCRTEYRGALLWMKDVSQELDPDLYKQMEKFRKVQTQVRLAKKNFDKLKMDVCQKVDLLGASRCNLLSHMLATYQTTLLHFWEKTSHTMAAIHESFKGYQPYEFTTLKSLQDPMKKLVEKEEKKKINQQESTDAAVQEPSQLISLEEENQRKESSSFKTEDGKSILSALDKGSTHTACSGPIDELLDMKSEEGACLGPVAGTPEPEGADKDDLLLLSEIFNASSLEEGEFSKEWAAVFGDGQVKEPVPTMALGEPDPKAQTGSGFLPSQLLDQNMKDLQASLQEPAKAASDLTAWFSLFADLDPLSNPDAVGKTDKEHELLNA
UniProt Q96EW2: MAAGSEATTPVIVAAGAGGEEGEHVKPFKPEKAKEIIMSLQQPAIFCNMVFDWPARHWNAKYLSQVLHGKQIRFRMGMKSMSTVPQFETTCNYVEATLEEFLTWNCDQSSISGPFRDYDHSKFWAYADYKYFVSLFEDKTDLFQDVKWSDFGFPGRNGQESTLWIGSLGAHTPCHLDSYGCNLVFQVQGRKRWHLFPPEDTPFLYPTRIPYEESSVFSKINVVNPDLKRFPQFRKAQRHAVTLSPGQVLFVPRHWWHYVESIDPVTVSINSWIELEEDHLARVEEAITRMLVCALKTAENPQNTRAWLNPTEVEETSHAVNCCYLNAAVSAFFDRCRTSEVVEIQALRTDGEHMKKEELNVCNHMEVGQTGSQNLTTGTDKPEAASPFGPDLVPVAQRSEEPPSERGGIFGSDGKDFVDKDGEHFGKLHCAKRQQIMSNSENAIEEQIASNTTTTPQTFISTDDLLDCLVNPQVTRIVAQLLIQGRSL
UniProt P28356, whole entry, looked up: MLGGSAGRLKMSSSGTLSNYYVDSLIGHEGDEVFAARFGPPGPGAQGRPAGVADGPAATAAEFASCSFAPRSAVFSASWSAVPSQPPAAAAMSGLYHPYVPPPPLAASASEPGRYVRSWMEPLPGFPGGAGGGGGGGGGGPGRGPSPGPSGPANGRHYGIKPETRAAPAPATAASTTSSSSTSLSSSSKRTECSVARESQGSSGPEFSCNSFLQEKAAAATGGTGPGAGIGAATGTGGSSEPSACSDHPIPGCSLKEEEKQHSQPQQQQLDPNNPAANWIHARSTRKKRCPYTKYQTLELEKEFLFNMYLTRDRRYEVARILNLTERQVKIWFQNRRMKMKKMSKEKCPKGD
UniProt Q00839, whole entry, looked up: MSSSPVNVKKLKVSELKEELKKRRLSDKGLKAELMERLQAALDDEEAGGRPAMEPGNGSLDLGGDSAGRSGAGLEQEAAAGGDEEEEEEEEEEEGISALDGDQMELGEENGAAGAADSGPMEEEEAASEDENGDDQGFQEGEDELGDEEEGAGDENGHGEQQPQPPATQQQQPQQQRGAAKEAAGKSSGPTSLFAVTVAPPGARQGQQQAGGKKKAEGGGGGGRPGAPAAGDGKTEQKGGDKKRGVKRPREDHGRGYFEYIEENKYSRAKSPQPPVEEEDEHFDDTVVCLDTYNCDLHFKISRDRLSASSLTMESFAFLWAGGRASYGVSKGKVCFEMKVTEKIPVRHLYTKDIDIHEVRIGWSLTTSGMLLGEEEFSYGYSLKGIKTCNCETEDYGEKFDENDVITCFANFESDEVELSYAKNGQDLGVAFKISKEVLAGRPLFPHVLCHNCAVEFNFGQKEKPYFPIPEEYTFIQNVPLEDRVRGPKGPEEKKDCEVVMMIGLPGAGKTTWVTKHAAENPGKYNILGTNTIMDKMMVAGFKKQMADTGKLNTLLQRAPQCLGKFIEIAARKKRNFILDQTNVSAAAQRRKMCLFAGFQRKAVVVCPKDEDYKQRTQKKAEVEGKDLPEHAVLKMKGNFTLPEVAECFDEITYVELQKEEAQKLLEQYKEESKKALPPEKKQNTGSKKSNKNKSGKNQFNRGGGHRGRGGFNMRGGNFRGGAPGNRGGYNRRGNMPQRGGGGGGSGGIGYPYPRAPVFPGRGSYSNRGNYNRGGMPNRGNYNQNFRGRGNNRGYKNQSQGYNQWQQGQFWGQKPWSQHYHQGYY
UniProt Q9UGU5: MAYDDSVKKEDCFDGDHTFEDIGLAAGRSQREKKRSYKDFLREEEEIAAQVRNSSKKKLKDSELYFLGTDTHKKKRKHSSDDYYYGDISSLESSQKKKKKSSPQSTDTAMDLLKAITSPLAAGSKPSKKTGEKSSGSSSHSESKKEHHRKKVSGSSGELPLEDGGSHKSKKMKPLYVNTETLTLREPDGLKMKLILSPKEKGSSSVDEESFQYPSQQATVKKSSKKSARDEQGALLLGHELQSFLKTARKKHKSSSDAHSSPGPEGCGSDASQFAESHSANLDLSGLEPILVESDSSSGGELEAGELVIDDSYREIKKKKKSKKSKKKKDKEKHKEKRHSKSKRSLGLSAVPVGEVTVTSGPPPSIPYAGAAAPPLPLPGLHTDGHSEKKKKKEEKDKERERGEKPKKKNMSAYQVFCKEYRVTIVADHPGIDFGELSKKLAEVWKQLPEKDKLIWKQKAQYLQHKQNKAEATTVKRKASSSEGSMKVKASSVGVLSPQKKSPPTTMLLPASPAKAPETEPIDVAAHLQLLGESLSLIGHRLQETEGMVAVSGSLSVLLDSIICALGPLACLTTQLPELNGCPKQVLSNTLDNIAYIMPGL
UniProt Q9Y241: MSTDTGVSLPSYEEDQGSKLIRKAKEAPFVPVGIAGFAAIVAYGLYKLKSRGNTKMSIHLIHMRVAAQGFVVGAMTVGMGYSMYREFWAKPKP

Assays:
Experiment in all cases: log2 fold change, soluble protein after heating vs DMSO (PISA); higher = thermal stabilisation; K562 cells, 10 uM, 30 min; active = over 0.2 and 3.5 SD of the protein, either way, in both replicates (recomputed)
[1] = compound: COC1=CC=C(C=C1)CN2C=CC3=C2C=C(C=C3)C(=O)NO
Summary of the method: (§1)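 Thermal stability values are relative to control samples and come from duplicates. They are expressed as log2 fold changes. For measurement, K562 cells (2×10^6 cells/mL) received 10 μM compound for 30 min, and aliquots were heated for 3 min over 48°C-58°C, pooled, and extracted at 4°C in PBS with 0.5% NP-40. Soluble protein, the supernatant after 21,000xg for 90 min, was quantified by TMTpro 16plex LC-MS/MS with equalised channel sums.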

filanesib = compound: CON(C)C(=O)N1N=C(c2cc(F)ccc2F)S[C@@]1(CCCN)c1ccccc1 [filanesib]
Summary of the method: as §1

zotarolimus = compound: CO[C@H]1C[C@@H]2CC[C@@H](C)[C@@](O)(O2)C(=O)C(=O)N2CCCC[C@H]2C(=O)O[C@H]([C@H](C)C[C@@H]2CC[C@H](n3cnnn3)[C@H](OC)C2)CC(=O)[C@H](C)/C=C(\C)[C@@H](O)[C@@H](OC)C(=O)[C@H](C)C[C@H](C)/C=C/C=C/C=C/1C [zotarolimus]
Summary of the method: as §1

idasanutlin = compound: COc1cc(C(=O)O)ccc1NC(=O)[C@@H]1N[C@@H](CC(C)(C)C)[C@](C#N)(c2ccc(Cl)cc2F)[C@H]1c1cccc(Cl)c1F [idasanutlin]
Summary of the method: as §1

alisertib = compound: COc1cc(Nc2ncc3c(n2)-c2ccc(Cl)cc2C(c2c(F)cccc2OC)=NC3)ccc1C(=O)O [alisertib]
Summary of the method: as §1

[2] = compound: COc1cc2nc(-c3cc(F)ccc3O)nc(N[C@@H]3CNC[C@H]3C(C)(C)O)c2cc1OC
Summary of the method: as §1

gefitinib = compound: COc1cc2ncnc(Nc3ccc(F)c(Cl)c3)c2cc1OCCCN1CCOCC1 [gefitinib]
Summary of the method: as §1

[3] = compound: COc1cccc2cc(-c3nc([C@H]4CC[C@H](C(=O)O)CC4)n4ncnc(N)c34)[nH]c12
Summary of the method: as §1

lapatinib = compound: CS(=O)(=O)CCNCc1ccc(-c2ccc3ncnc(Nc4ccc(OCc5cccc(F)c5)c(Cl)c4)c3c2)o1 [lapatinib]
Summary of the method: as §1

pictilisib = compound: CS(=O)(=O)N1CCN(Cc2cc3nc(-c4cccc5[nH]ncc45)nc(N4CCOCC4)c3s2)CC1 [pictilisib]
Summary of the method: as §1

Measured: log2 fold change

HNRNPH1 (UniProt P31943)
inactive: [1] 0.069 | filanesib 0 | zotarolimus 0.091 | idasanutlin 0.048 | alisertib 0.028 | [2] -0.192 | gefitinib -0.015 | [3] 0.068 | lapatinib 0.046 | pictilisib -0.135

HSPA2 (UniProt P54652)
inactive: [1] -0.103 | filanesib 0.026 | idasanutlin 0.032 | alisertib -0.077 | gefitinib 0.005 | [3] 0.076

HSDL1 (UniProt Q3SXM5)
inactive: [1] -0.092 | filanesib -0.057 | zotarolimus 0.049 | idasanutlin 0.01 | alisertib -0.044 | [2] 0.046 | gefitinib 0.004 | [3] 0.053 | lapatinib -0.032 | pictilisib 0.066

HSPB1 (UniProt P04792)
inactive: [1] -0.024 | filanesib 0.075 | zotarolimus 0.017 | idasanutlin 0.036 | alisertib 0.097 | [2] -0.039 | gefitinib 0.035 | [3] -0.105 | lapatinib -0.02 | pictilisib -0.019

HIBCH (UniProt Q6NVY1)
inactive: [1] 0.092 | filanesib -0.145 | zotarolimus 0.016 | idasanutlin -0.027 | alisertib -0.009 | [2] -0.011 | gefitinib 0.001 | [3] 0.031 | lapatinib 0.005 | pictilisib 0.068

HNRNPR (UniProt O43390)
inactive: [1] -0.083 | filanesib 0.034 | zotarolimus 0.156 | alisertib -0.293 | [2] -0.082 | gefitinib -0.042 | [3] -0.103 | lapatinib 0.129

HNRNPA2B1 (UniProt P22626)
inactive: [1] -0.122 | filanesib 0.427 | zotarolimus -0.114 | idasanutlin 0.361 | alisertib -0.131 | [2] -0.007 | gefitinib -0.069 | [3] -0.071 | lapatinib 0.086 | pictilisib -0.026

HRC (UniProt P23327)
inactive: [1] -0.089 | filanesib 0.019 | zotarolimus -0.032 | idasanutlin 0.035 | alisertib -0.059 | [2] -0.008 | gefitinib 0.035 | [3] -0.007 | lapatinib -0.039 | pictilisib 0.017

ICAM5 (UniProt Q9UMF0)
inactive: [1] -0.057 | filanesib 0.046 | zotarolimus -0.099 | idasanutlin -0.036 | alisertib 0.845 | gefitinib -0.014 | [3] 0

ICMT (UniProt O60725)
inactive: [1] -0.083 | filanesib -0.189 | idasanutlin -0.029 | alisertib -0.046 | [2] -0.112 | gefitinib 0.154 | [3] 0.085 | lapatinib 0.206

HSD17B11 (UniProt Q8NBQ5)
inactive: [1] -0.022 | filanesib -0.058 | zotarolimus 0.003 | idasanutlin -0.031 | alisertib -0.033 | [2] 0.093 | gefitinib 0.011 | [3] 0.041 | lapatinib 0.023 | pictilisib 0.008

HLA-E (UniProt P13747)
inactive: [1] -0.313 | filanesib -0.042 | zotarolimus 0.075 | idasanutlin -0.065 | [2] 0.008 | lapatinib 0.029 | pictilisib -0.065

HMGCLL1 (UniProt Q8TB92)
inactive: [1] -0.206 | filanesib 0.003 | zotarolimus 0.001 | idasanutlin 0.035 | alisertib 0.016 | gefitinib 0.026 | [3] 0.073 | pictilisib 0.008

HSPA8 (UniProt E9PK54)
inactive: [1] 0.011 | filanesib 0.033 | zotarolimus -0.015 | idasanutlin -0.037 | alisertib -0.186 | [2] -0.208 | gefitinib -0.077 | [3] -0.002 | lapatinib 0.17 | pictilisib -0.071

ICE2 (UniProt Q659A1)
inactive: zotarolimus 0.055 | idasanutlin 0.042 | pictilisib -0.128

HOOK2 (UniProt Q96ED9)
inactive: [1] -0.041 | zotarolimus -0.012 | [2] 0.299 | lapatinib -0.031

HOMER2 (UniProt Q9NSB8)
inactive: zotarolimus 0.046 | idasanutlin -0.045 | alisertib -0.005 | [3] 0.059

HYOU1, A0A494C039
inactive: filanesib 0.087 | zotarolimus 0.057 | idasanutlin 0.02 | alisertib -0.118 | gefitinib 0.091 | [3] -0.048 | pictilisib -0.052

HMBS (UniProt F5H0P4)
inactive: alisertib 1.56 | [3] -0.2

HP (UniProt P00738)
inactive: filanesib 0.085

HMCES (UniProt Q96FZ2)
inactive: filanesib 0.046 | idasanutlin 0.033 | alisertib 0.231 | [2] 0.082 | gefitinib 0.081 | [3] 0.209 | lapatinib -0.082

HMG20B (UniProt Q9P0W2)
inactive: [1] -0.085 | zotarolimus -0.01 | gefitinib 0.202 | pictilisib -0.148

ICA1 isoform 2 (UniProt Q05084)
inactive: [1] -0.098 | zotarolimus -0.062 | idasanutlin -0.007 | pictilisib 0.062

HMGN5 (UniProt Q5JSK9)
inactive: filanesib 0.064 | zotarolimus -0.12 | idasanutlin 0.013 | alisertib 0.003 | [2] 0.282 | [3] 0.182 | lapatinib -0.265 | pictilisib 0.319

HSPBAP1 (UniProt Q96EW2)
inactive: [1] -0.141 | zotarolimus -0.117 | idasanutlin 0.159

HUWE1 isoform 2 (UniProt Q7Z6Z7)
inactive: filanesib 0.11 | zotarolimus 0.011 | idasanutlin -0.204

Reprinted at random: two records from the list.
HMG20B (UniProt Q9P0W2)
inactive: [1] -0.085 | zotarolimus -0.01 | gefitinib 0.202 | pictilisib -0.148

HSPBAP1 (UniProt Q96EW2)
inactive: [1] -0.141 | zotarolimus -0.117 | idasanutlin 0.159

Further results follow.

HOOK1 (UniProt Q9UJC3)
inactive: idasanutlin 0.069 | [2] 0.014 | lapatinib -0.058

HOXD9 (UniProt P28356)
inactive: zotarolimus 0.265 | idasanutlin 0.133 | pictilisib -0.029

HNRNPK isoform 3 (UniProt P61978)
inactive: [1] -0.025 | filanesib 0.077 | alisertib -0.063 | gefitinib -0.066 | [3] 0.005 | pictilisib 0.057

HTR1F (UniProt P30939)
inactive: [1] -0.036 | zotarolimus -0.031 | idasanutlin -0.006 | pictilisib 0.125

HPS1 (UniProt Q92902)
inactive: filanesib 0.081 | zotarolimus -0.09 | idasanutlin 0.061 | alisertib 0 | [2] 0.068 | gefitinib -0.003 | [3] 0.048 | lapatinib -0.213

HNRNPU isoform 2 (UniProt Q00839)
inactive: [2] -0.017 | lapatinib -0.087

ICOSLG isoform 2 (UniProt O75144)
inactive: alisertib -0.22 | [2] -0.11 | [3] 0.327 | lapatinib 0.033

HMGXB4 (UniProt Q9UGU5)
inactive: zotarolimus -0.107 | [2] 0.255 | lapatinib -0.199

HIGD1A isoform 2 (UniProt Q9Y241)
inactive: [1] -0.005 | filanesib -0.025 | alisertib 0.035 | gefitinib 0.049 | [3] 0.15

HSF1 (UniProt Q00613)
inactive: filanesib -0.109 | zotarolimus 0.074 | idasanutlin -0.131 | alisertib -0.146 | [2] -0.076 | gefitinib -0.026 | [3] 0.18 | lapatinib 0.086 | pictilisib 0.063
